Data taken from patent US11124541B2 (REGENTS OF THE UNIVERSITY OF MINNESOTA, priority 2016, dated 2021).
Non-standard residues stand in square brackets, D forms with d. Dap = NC[C@H](N)C(=O)O

Test: general procedure: Fmoc solid-phase peptide synthesis; H-Pro-2-Chlorotrityl resin (0.76 meq/g); HBTU/DIPEA; cyclization with BOP/HOBt
Conditions: whole synthesis, 214 nm, scale of the general procedure 0.10 mmol

Row | Substance | final HPLC purity
1 | cyclo(P[dF]RW[dP]) | >96%
2 | cyclo(P[dF]RWNAF[dP]) | >99%
3 | cyclo(P[dF]RW[Dap][dP]) | >96%
4 | cyclo(PH[dF]RW[dP]) | >98%
5 | cyclo(PH[dF]RW[Dap][dP]) | >96%
6 | cyclo(P[dF]RWN[dP]) | >95%
7 | cyclo(PH[dF]RWN[dP]) | >96%
8 | cyclo(P[dF]RW[Dap]AF[dP]) | >99%
9 | cyclo(PH[dF]RWNA[dP]) | >95%
10 | cyclo(PH[dF]RW[Dap]AF[dP]) | >99%
11 | cyclo(P[dF]RWNA[dP]) | >97%
12 | cyclo(PH[dF]RWNAF[dP]) | >99%
13 | cyclo(P[dF]RW[Dap]A[dP]) | >98%
